In PubChem BioAssay AID445 (National Center for Advancing Translational Sciences (NCATS), 2006):
This is one part of the list. Shown are side measurements of this screen, not its main read-out; they come without a call. Most of these compounds were active or inconclusive in the main read-out, so they are no random draw. Words in brackets tell the shape of the fitted curve; partial curves, single points and poor fits give uncertain potencies.

Test: IkB Signaling
Conditions: ABC-DLBCL IkBa-CBG/CBR dual luciferase ratio (green luciferase fused to IkBa over red control in OCI-Ly3 lymphoma cells), 4 h
Outline: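 In this assay, an IκBα–CBG68 fusion accumulates when IKK-driven degradation is blocked; native CBR normalizes for cell number. OCI-Ly3 cells were treated 4 h with compound and doxycycline, then green and red light read after Chroma-Glo addition.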

[1] = measured here: control luc red channel unless noted

Question: For `Cc1nnc(N2CCN(c3ccc(Cl)cc3)CC2)c2c1nnn2Cc1ccc(F)cc1`, which AC50 [1] is on record?
Answer: The AC50 was 10 µM [falling, partial curve].

Question: With `Oc1ccc(Nc2nc(-c3ccc(O)cc3)cs2)cc1` as the compound, how does the AC50 [1] read?
Answer: Its AC50 is 15.8 µM [falling, partial curve].

Question: With `CN(C1CCCCC1)S(=O)(=O)c1ccc(F)c(C(=O)Nc2ccc(C(F)(F)F)cc2)c1` as the compound, how does the AC50 [1] read?
Answer: The AC50 was 15.8 µM [falling, partial curve].

Question: With `COc1ccc(NC(=O)c2c(NCc3cccs3)sc3c2CCCCC3)cc1` as the compound, how does the AC50 [1] read?
Answer: Its AC50 is 3.98 µM [falling, full curve].

Question: With `Cc1ccc(-n2nc(C)c3c(C)cc(=O)n(CC(=O)Nc4ccc(C(C)C)cc4)c32)cc1` as the compound, how does the AC50 [1] read?
Answer: Its AC50 is 0.0158 µM [rising, full curve, poor fit].

Question: With `CCc1ccc(NC(=O)C(=O)NCCc2sc(-c3ccc(OC)c(OC)c3)nc2C)cc1` as the compound, how does the AC50 [1] read?
Answer: Its AC50 is 10 µM [rising, partial curve].

Question: For `COc1cc(OC)cc(C(=O)NCCc2csc(-c3cccc(C)c3)n2)c1`, which AC50 [1] is on record?
Answer: The AC50 was 20 µM [falling, partial curve].

Question: Which AC50 [1] does the source give for `CC1CCCCN1C(=O)c1ccc2c(c1)N(Cc1ccc(Cl)cc1)C(=O)c1ccccc1S2=O` (configuration not stated) here?
Answer: Its AC50 is 20 µM [falling, partial curve].

Question: For `C[C@@]12CCC(=O)C=C1CC[C@@H]1[C@@H]2[C@H](O)C[C@]2(C)[C@@H]1CC[C@]2(O)C(=O)COC(=O)CCC(=O)O`, which AC50 [1] is on record?
Answer: The AC50 was 126 nM [rising, full curve] [measured here: IkB-luc green channel].

Question: For `CCc1cccc(NC(=O)c2cc(-c3ccccc3)n[nH]2)c1`, which AC50 [1] is on record?
Answer: The AC50 was 0.794 µM [falling, partial curve].

Question: For `O=C(Nc1cccc(Cl)c1)C1CCN(c2nc3ccccc3nc2C(F)(F)F)CC1`, which AC50 [1] is on record?
Answer: The AC50 was 31.6 µM [falling, single point].

Question: For `COc1cccc(OCCCn2c(-c3ccc(Cl)cc3)nc3ccccc3c2=O)c1`, which AC50 [1] is on record?
Answer: The AC50 was 10 µM [falling, single point].

Question: Which AC50 (measured here: IkB-luc green channel) does the source give for `Cc1ccsc1C(=O)Nc1nnc(-c2ccco2)o1` here?
Answer: Its AC50 is 25.1 µM [rising, single point].

Question: And the AC50 (measured here: control luc red channel)?
Answer: The AC50 was 5.01 µM [falling, full curve].

Question: With `CCCCSCCCNC(=O)CS(=O)Cc1nc(-c2cccc(C)c2)oc1C` (configuration not stated) as the compound, how does the AC50 [1] read?
Answer: The AC50 was 31.6 µM [falling, partial curve].

Question: With `Cc1cc(C)n(-c2nc3ccccc3[nH]c2=O)n1` as the compound, how does the AC50 [1] read?
Answer: The AC50 was 10 µM [falling, partial curve].

Question: With `CCCCSc1nnc2c(n1)OC(c1ccc(Br)s1)Nc1ccccc1-2` (configuration not stated) as the compound, how does the AC50 [1] read?
Answer: The AC50 was 31.6 µM [falling, partial curve].

Question: Which AC50 [1] does the source give for `CCCCOC(=O)c1ccc(-n2nnc3c(sc4nc(C)cc(C)c43)c2=O)cc1` here?
Answer: The AC50 was 12.6 µM [falling, partial curve].

Question: For `COc1ccc(CNC(=O)c2c(O)nc3c(C)cccn3c2=O)cc1`, which AC50 [1] is on record?
Answer: The AC50 was 39.8 µM [falling, single point].

Question: Which AC50 [1] does the source give for `Cc1cc(N2CCC(C)CC2)nc2ccc(NC(=O)Cc3ccccc3Br)cc12` here?
Answer: The AC50 was 7.94 µM [falling, partial curve].

Question: Which AC50 [1] does the source give for `COc1cc2nc(Nc3cccc(F)c3)nc(N)c2cc1OC` here?
Answer: The AC50 was 5.01 µM [falling, partial curve].

Question: For `CCOc1ccc(-c2nc(-c3ccccc3)c(-c3ccccc3)[nH]2)cc1OCC`, which AC50 [1] is on record?
Answer: Its AC50 is 7.94 µM [falling, partial curve].

Question: Which AC50 [1] does the source give for `CCOC(=O)N[C@H](Cc1c[nH]c2ccccc12)C(=O)Nc1cccc(Cl)c1` here?
Answer: The AC50 was 12.6 µM [falling, partial curve].

Question: With `CCOc1ccccc1N1CSC2=C(C#N)C(c3c(OC)ccc4ccccc34)CC(=O)N2C1` (configuration not stated) as the compound, how does the AC50 [1] read?
Answer: Its AC50 is 39.8 µM [rising, single point] [measured here: IkB-luc green channel].

Question: With `COc1ccc(C(=O)c2cn(CC(=O)Nc3cc(C)ccc3C)c3nc(C)ccc3c2=O)cc1` as the compound, how does the AC50 [1] read?
Answer: The AC50 was 0.316 µM [rising, full curve, poor fit].

Question: For `CCOCCCN(Cc1ccco1)C(=O)c1cc2c(s1)-c1c(C)cccc1OC2`, which AC50 [1] is on record?
Answer: The AC50 was 31.6 µM [falling, single point].

Question: Which AC50 [1] does the source give for `CC(C)Oc1ccc(CNC(=O)C2=Cc3ccccc3OC2)cc1` here?
Answer: Its AC50 is 31.6 µM [falling, partial curve].

Question: With `NC(=O)C1CCN(c2csc3ccc(F)cc3c2=O)CC1` as the compound, how does the AC50 [1] read?
Answer: Its AC50 is 6.31 µM [falling, partial curve].

Question: For `O=C(Nc1ccc(NC(=O)c2ccco2)cc1)c1cnccn1`, which AC50 [1] is on record?
Answer: The AC50 was 20 µM [falling, partial curve].

Question: For `Cc1ccc(NC(=O)CN(C)S(=O)(=O)c2cccc3nsnc23)cc1Cl`, which AC50 [1] is on record?
Answer: Its AC50 is 25.1 µM [falling, partial curve].

Question: With `Cc1ccc(-c2noc(CNC(=O)c3ccc(C)c(Cl)c3)n2)cc1` as the compound, how does the AC50 [1] read?
Answer: Its AC50 is 25.1 µM [falling, partial curve].

Question: With `COc1ccc(N2CCN(C(=O)CSc3ncccc3-c3nc4ccccc4[nH]3)CC2)cc1` as the compound, how does the AC50 [1] read?
Answer: Its AC50 is 0.631 µM [falling, full curve].
